# Results are given in words; binding and its absence hold for the method and conditions named. Some entries that bind do so weakly or less than the wild type.
# Amino acid sequences for entries named in this document (tags omitted). A change or cut given only in a name is not applied to a line headed by its entry. Residues count along the entry.
# UniProt Q9UGM3: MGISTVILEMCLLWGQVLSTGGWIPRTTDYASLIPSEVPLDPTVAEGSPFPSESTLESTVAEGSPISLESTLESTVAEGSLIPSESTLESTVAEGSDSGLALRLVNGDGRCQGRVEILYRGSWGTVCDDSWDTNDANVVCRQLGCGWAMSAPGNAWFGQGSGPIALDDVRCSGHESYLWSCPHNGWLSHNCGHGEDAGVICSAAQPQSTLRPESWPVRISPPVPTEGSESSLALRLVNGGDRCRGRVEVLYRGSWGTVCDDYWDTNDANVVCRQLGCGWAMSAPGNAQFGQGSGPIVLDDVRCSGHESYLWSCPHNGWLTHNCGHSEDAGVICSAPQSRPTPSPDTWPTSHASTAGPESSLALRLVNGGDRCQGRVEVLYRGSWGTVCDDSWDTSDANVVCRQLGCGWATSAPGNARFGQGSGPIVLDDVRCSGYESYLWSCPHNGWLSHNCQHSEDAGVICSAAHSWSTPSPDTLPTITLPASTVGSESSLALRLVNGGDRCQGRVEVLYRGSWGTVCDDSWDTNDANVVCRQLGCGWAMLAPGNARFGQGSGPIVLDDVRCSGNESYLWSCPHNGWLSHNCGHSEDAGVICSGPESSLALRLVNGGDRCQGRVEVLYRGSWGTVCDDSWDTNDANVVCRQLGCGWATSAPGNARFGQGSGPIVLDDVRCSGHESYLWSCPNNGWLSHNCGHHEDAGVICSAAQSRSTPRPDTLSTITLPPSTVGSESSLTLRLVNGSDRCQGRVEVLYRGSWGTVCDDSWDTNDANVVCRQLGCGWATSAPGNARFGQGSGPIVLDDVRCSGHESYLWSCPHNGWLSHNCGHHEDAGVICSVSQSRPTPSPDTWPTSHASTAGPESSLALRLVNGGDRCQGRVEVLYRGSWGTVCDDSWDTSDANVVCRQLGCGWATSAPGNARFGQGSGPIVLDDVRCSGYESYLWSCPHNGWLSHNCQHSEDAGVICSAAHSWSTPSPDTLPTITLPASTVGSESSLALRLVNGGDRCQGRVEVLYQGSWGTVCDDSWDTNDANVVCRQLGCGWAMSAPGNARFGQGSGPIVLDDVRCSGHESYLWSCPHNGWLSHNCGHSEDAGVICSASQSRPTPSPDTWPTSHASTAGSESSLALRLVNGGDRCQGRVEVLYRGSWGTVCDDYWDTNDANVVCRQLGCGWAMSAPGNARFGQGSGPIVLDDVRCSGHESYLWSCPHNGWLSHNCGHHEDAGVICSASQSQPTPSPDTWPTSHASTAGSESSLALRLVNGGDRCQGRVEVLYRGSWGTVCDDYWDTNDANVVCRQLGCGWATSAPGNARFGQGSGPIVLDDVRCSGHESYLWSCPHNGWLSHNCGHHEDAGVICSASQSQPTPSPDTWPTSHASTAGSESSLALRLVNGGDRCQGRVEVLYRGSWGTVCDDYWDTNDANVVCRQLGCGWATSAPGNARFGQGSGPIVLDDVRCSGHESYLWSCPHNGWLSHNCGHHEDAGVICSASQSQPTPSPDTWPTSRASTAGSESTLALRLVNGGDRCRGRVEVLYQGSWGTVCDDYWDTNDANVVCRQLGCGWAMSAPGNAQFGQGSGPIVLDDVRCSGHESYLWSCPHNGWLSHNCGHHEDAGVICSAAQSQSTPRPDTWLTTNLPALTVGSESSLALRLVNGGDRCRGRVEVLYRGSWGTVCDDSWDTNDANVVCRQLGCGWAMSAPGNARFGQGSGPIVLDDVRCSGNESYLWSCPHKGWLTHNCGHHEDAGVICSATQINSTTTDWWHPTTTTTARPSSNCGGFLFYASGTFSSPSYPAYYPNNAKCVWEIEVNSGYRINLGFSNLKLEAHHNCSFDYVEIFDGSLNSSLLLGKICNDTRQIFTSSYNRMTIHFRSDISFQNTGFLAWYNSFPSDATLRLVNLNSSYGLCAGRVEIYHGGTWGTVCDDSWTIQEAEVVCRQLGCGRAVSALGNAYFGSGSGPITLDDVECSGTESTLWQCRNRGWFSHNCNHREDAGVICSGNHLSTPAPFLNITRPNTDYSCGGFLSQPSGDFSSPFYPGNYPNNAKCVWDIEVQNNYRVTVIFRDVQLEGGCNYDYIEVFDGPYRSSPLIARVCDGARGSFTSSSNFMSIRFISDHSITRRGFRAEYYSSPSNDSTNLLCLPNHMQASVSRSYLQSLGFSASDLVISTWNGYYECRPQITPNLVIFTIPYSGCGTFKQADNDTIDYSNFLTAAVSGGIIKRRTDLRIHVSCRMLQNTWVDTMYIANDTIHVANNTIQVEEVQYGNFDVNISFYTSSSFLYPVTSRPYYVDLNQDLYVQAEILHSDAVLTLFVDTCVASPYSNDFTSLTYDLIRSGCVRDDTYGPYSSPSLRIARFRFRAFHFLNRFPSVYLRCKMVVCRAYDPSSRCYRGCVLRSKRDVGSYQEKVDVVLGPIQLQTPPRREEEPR
# de-N-glycosylated DMBT1 (salivary DMBT1 digested with PNGase F): residues 20-2413 of Q9UGM3
# recombinant truncated human DMBT1 (Met 1-Ser 220): residues 20-220 of Q9UGM3
# B1: P. aeruginosa PAO1 pili (Type IV pili, polymer predominately of the PilA subunit) (protein, UniProt P04739 7-149)
# chain: FTLIELMIVVAIIGILAAIAIPQYQNYVARSEGASALATINPLKTTVEESLSRGIAGSKIKIGTTASTATETYVGVEPDANKLGVIAVAIEDSGAGDITFTFQTGTSSPKNATKVITLNRTADGVWACKSTQDPMFTPKGCDN
# How the values were obtained:
# Assay in all cases: far-Western, overlay or dot blot; dot-immunoblot: 2 µL of DMBT1 or other protein or peptide (400-500 ng) spotted on a nitrocellulose membrane, blocked with 5% BSA, incubated with undiluted PAO1 pili extract for 40 min at RT in PBS, bound pili detected with anti-PilA antibody; only the target purified
# [1] = target: DMBT1 (Deleted in Malignant Brain Tumors 1) purified from human saliva (human) (UniProt Q9UGM3)
# [2] = target: de-N-glycosylated DMBT1 (salivary DMBT1 digested with PNGase F) (human) (UniProt Q9UGM3)
# [3] = target: recombinant truncated human DMBT1 (Met 1-Ser 220) (human) (UniProt Q9UGM3)
binder,measurement,setting,value
B1,binding,[1],binds
same,binding,[2],binds
same,binding,[3],no binding (tested: 500 ng spotted)
